Where “and” joins values, the source holds several entries; their conditions need not be identical. Identical values can stand only once. The whole screen tested about 400,000 compounds, of which about 13,000 (3.2%) were called active. Inconclusive results, whose numbers are uncertain, are shown with a selection of clear calls. The call rests on the fitted dose curve; in most records, active means well fitted cell-killing curve with a large enough effect; inconclusive means small, poorly fitted or top-dose-only effect, or effect the other way; inactive means flat fitted curve, though single readings scatter. Potencies beside an inconclusive call are fits to weak or partial responses and may not hold up.
Assay: qHTS assay for MDR1-selective chemotherapeutics: Primary screen using the drug-selected MDR subline cells KB-V1; further: nearly all actives have a fitted effect of over 60% in size
Details: KB-V1 MDR cells viability, CellTiter-Glo, 72 h; activity change, negative = cytotoxicity: at 46.1 µM (top of the series)
In short: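 Potencies derive from concentration-effect curves fitted to normalized luminescence (CellTiter-Glo) of KB-V1 cells treated for 72 h at 37 degrees C in phenol-red-free DMEM containing 10% FBS.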
On the % scale 0 is the no-effect control and ±100 the full control effect; potency means the concentration at half of the fitted maximal effect.

Structure (SMILES)	Potency	activity change, negative = cytotoxicity
CCOC(=O)c1ccc(-c2ccc(/C=C(\C#N)C(=O)NCC3CCCO3)o2)cc1 (stereo unspecified)	active: 16.4 µM	
CC(C)CCn1c(N2CCN(c3cccc(Cl)c3)CC2)nc2c1c(=O)[nH]c(=O)n2C	inconclusive: 25.9 µM [cytotoxic, partial curve, poor fit]	
Cn1c(=NC(=O)c2ccc(S(=O)(=O)N3CCCC3)cc2)sc2cc(F)ccc21	inconclusive: 23.1 µM [rising, single point]	
COC(=O)CSc1nc2c(cnn2-c2ccc(Cl)cc2)c(=O)[nH]1		inactive: -28.9%
COCOCCn1cc(CN2CCS(=O)(=O)N(Cc3ccc(-c4ccc(OC)c(OC)c4)cc3)C(C)C2=O)nn1 (stereo unspecified)		inactive: 3.6%
Cc1cc(C)n(CC(=O)NC2C(=O)N3C(C(=O)O)=C(CSc4nnc(C)s4)CSC23)n1 (stereo unspecified)		inactive: 12%
COc1ccc2[nH]c3c(c2c1)CCN1C(=O)C(CC(=O)NCCC2=CCCCC2)C[C@H](C(=O)N2CCCCC2)[C@@]31CCc1ccccc1 (stereo partly specified)	inconclusive: 29.1 µM [cytotoxic, single point]	
O=c1c(-c2cc3ccccc3[nH]2)nc2ccccc2n1C(CCc1ccccc1)c1nc2ccccc2[nH]1 (stereo unspecified)	inconclusive: 20.6 µM [cytotoxic, single point]	
Cc1coc2c(C)c3oc(=O)cc(-c4ccccc4)c3cc12		inactive: 1.53%
CN1CCN(C(=O)c2cc3c(c(-c4cccc(-c5cccnc5)c4)n2)[C@H](CCO)N(C(=O)CC2CC2)C3)CC1		inactive: 11.2%
O=C(Nc1cccc(S(=O)(=O)N2CCOCC2)c1)c1ccc(N2CCOCC2)c([N+](=O)[O-])c1	inconclusive: 18.4 µM [cytotoxic, partial curve]	
CC1CCCCC12NC(=O)N(CC(=O)Nc1ccc(OC(F)F)cc1)C2=O (stereo unspecified)		inactive: 13.5%
Clc1ccc(OCCCN2CCc3ccccc3C2)c(Br)c1		inactive: -21.1%
CC(C)Cc1nnc(NC(=O)CN2C(=O)NC3(CCCCC3)C2=O)s1	inconclusive: 3.26 µM [cytotoxic, partial curve, poor fit]	
COc1cccc(NS(=O)(=O)c2ccc3c(c2)[C@H]2C=CC[C@H]2[C@@H](c2ccccc2Cl)N3)c1		inactive: -5.78%
OCCCNc1ncnc2scc(-c3ccc(Cl)cc3)c12	inconclusive: 16.4 µM [cytotoxic, single point]	
COc1ccc(Oc2coc3cc(O)ccc3c2=O)cc1	inconclusive: 29.1 µM [rising, single point]	
Cc1cnc(NC(=O)CN2CCN(c3ccccn3)CC2)s1	inconclusive: 16.4 µM [cytotoxic, single point] and inconclusive: 23.1 µM [cytotoxic, single point]	
Cc1nn(-c2ccccc2)c(Cl)c1C(=O)NNC(=O)c1ccccc1O	inconclusive: 0.731 µM [cytotoxic, full curve]	
CCOC(=O)c1[nH]c(C)c(C(=O)Nc2ccc(C)cc2C)c1C	active: 3.66 µM	
CC(NC(=O)c1ccc(Br)cc1)c1ccc2c(c1)CCCC2 (stereo unspecified)	inconclusive: 29.1 µM [cytotoxic, single point]	
Cc1ccc(CNC(=O)[C@H](C)NC(=O)C2CCN(C(=O)[C@@H]3CCCN3C(=O)OC(C)(C)C)CC2)cc1	inconclusive: 8.2 µM [rising, partial curve]	

Structure (SMILES)	Potency	activity change, negative = cytotoxicity
COc1ccc(-n2nc(C(=O)NCC(=O)NCC3COc4ccccc4O3)c3ccccc3c2=O)cc1OC (stereo unspecified)		inactive: -9.75%
CCN(CC)CCNC(=O)CSc1nc2nc(C)c(Cc3ccccc3)c(C)n2n1		inactive: 19.1%
N#Cc1ccc(-c2nc3ccc(Cl)cn3c2Cc2ccccc2C(F)(F)F)cc1	inconclusive: 29.1 µM [cytotoxic, single point]	
Cc1ccc(NS(=O)(=O)c2ccc(-c3ccc(=O)[nH]n3)o2)cc1Cl	inconclusive: 23.1 µM [rising, partial curve]	
COc1ccc(CCNc2nc(Cl)nc(NC(C)(C)CO)n2)cc1OC		inactive: -6.37%
O=c1cc2c(=O)oc3cc(O)c(O)oc3c2c(O)c1O	inconclusive: 29.1 µM [rising, single point]	
O=C(/C=C/[C@H]1O[C@@H](n2ccc(=O)[nH]c2=O)[C@H](O)[C@@H]1O)N1CCN(CCc2ccccc2)CC1		inactive: 6.85%
COc1ccc(CN(C)C(=O)COC(=O)c2ccc(-c3ccccc3)cc2)c(OC)c1OC		inactive: -5.6%
O=S(=O)(Nc1cccc(-n2cnnn2)c1)c1ccccc1F	inconclusive: 29.1 µM [rising, single point]	
CCOC(=O)c1cnc(NCc2ccccc2)nc1C		inactive: 0%
CS(=O)(=O)c1ccccc1C(=O)N(CCc1ccccc1)Cc1ccccc1	inconclusive: 9.2 µM [cytotoxic, partial curve, poor fit]	
CNC(=O)C[C@H]1C(=O)N(c2ccccc2)C[C@@H]1C		inactive: 0.739%
CCC(C(=O)NC1CCCC1)N(C(=O)Cn1nnc(-c2ccc(C)o2)n1)c1ccc(F)cc1 (stereo unspecified)	inconclusive: 1.46 µM [cytotoxic, full curve, poor fit]	
COc1ccc(NS(=O)(=O)c2cc(NC(=O)COc3ccc(OC)cc3)ccc2N2CCOCC2)cc1	active: 2.31 µM	
C#CCOCCOCCOCCNc1nc(N2CCN(C(=O)[C@H](CCCCN)n3cc(CN)nn3)CC2)nc(N2CCN(C(=O)[C@H](CCCCN)n3cc(CN)nn3)CC2)n1	inconclusive: 14.6 µM [rising, partial curve, poor fit]	
Cc1cccc(NC(=O)C(C)OC(=O)CNC(=O)C2CCCCC2)c1 (stereo unspecified)		inactive: -12%
CCOc1ccccc1NC(=O)CCn1cnnn1	inconclusive: 20.6 µM [rising, single point]	
Cc1ccc(C(=O)OCC(=O)Nc2ccc(F)c(Cl)c2)o1	inconclusive: 11.6 µM [rising, partial curve]	
CC(C)N(C(=O)[C@H]1C[C@H](CC(=O)NCCCn2ccnc2)C(=O)N2CCc3c([nH]c4cc(-c5ccco5)ccc34)[C@]12C)C(C)C	inconclusive: 0.731 µM [rising, full curve, poor fit]	
O=C(NCc1cccnc1)c1nc(-c2ccccc2)n(-c2ccccc2)n1	inconclusive: 16.4 µM [cytotoxic, single point]	
CCC(=O)Nc1cccc(C2=NOC3(C2)C[C@@H](C(N)=O)N(C(=O)CC)C3)c1 (stereo partly specified)	inconclusive: 16.4 µM [rising, single point]	
CCc1cccc(C)c1NC(=S)N(CCCN1CCOCC1)Cc1cccnc1	inconclusive: 29.1 µM [cytotoxic, single point]	

Structure (SMILES)	Potency	activity change, negative = cytotoxicity
CC1CCCN(S(=O)(=O)c2ccc(CN3C(=O)c4cccnc4C3=O)cc2)C1 (stereo unspecified)		inconclusive: 0%
COc1cccc(CN2CCC2(C)C(=O)Nc2ccc(C)c(O)c2)c1F (stereo unspecified)	inconclusive: 16.4 µM [cytotoxic, single point]	
COc1ccc2oc(C(=O)Nc3ccc(N4CCOCC4)cc3)c(C)c2c1	inconclusive: 13 µM [cytotoxic, partial curve]	
O=C(/C=C/c1cccc(F)c1)NNC(=O)c1ccncc1	active: 8.2 µM	
CCN1CCN(c2ccc(NC(=O)c3ccc4c(c3)OCO4)cc2)CC1	inconclusive: 8.2 µM [cytotoxic, partial curve, poor fit]	
CCOC(=O)N1CCN(Cc2nc3cc([N+](=O)[O-])ccc3n2C(C)C)CC1	inconclusive: 6.51 µM [cytotoxic, partial curve]	
Cc1ccc(/C=C2\SC(N3CCN(C(c4ccccc4)c4ccccc4)CC3)=NC2=O)o1	inconclusive: 23.1 µM [cytotoxic, single point]	
O=[N+]([O-])c1c(Nc2ccc(Br)cc2)ccc2nonc12		inactive: 1.66%
COc1ccc(NC(=O)Cn2c(=O)n(-c3ccc(OC)cc3OC)c(=O)c3c(C)c(C)sc32)cc1	inconclusive: 3.66 µM [cytotoxic, partial curve]	
COc1ccc(CNCC(O)COCc2cccs2)cc1 (stereo unspecified)	inconclusive: 13 µM [cytotoxic, partial curve]	
O=C(NC(=S)Nc1cccc(NC(=O)c2ccc(Cl)cc2Cl)c1)c1cccs1	inconclusive: 14.6 µM [cytotoxic, partial curve, poor fit]	
Cc1cc(C)cc(NC(=O)CSCc2cnn(-c3ccccc3)c2-n2cccc2)c1	active: 18.4 µM	
O=C(Nc1cccc(C(F)(F)F)c1)c1cccnc1N1CCOCC1		inactive: 5.37%
Cc1ccc(C(=O)N2CCN(c3ncccn3)CC2)cc1S(=O)(=O)N1CCCCC1	active: 23.1 µM	
COc1ccc(C2CC(c3ccccc3)=NN2C(=O)COC(=O)c2cccc(O)c2)cc1 (stereo unspecified)	inconclusive: 14.6 µM [cytotoxic, single point]	
COC(=O)c1c(N2C(=O)Nc3ccccc3N2O)sc2c1CCCC2		inconclusive: 15.3%
CC(NC(=O)c1ccc2c(c1)OCO2)C(c1cccs1)N1CCN(c2ccccc2)CC1 (stereo unspecified)		inactive: -11.2%
COC(=O)c1cc(C(=O)Nc2ccc(S(N)(=O)=O)cc2)cc([N+](=O)[O-])c1		inconclusive: 33.6%
CCCN(Cc1nnc(-c2ccccc2Cl)o1)C(=O)c1cc(S(=O)(=O)N2CCOCC2)ccc1F	inconclusive: 3.26 µM [cytotoxic, full curve]	
O=C(CN1CCCCC1)N1CCCc2c1c(=O)oc1ccc(OCc3ccccc3)cc21	inconclusive: 20.6 µM [cytotoxic, partial curve, poor fit]	
COc1cc(OC)c(OC)cc1CNC(=O)c1cc(S(=O)(=O)N2CCOCC2)ccc1F	inconclusive: 20.6 µM [cytotoxic, single point]	
O=C(CCNC(=O)c1ccc([N+](=O)[O-])cc1)Nc1cccc(S(=O)(=O)N2CCOCC2)c1	inconclusive: 0.291 µM [cytotoxic, full curve, poor fit]	

From PubChem BioAssay AID1347076 (National Center for Advancing Translational Sciences (NCATS), 2019)
